In this data set the test system is 4T1 cells. Put plainly: Epifluorescent microscopy of cellular localization with MitoTracker Red. Format: cell-based, murine. To be noted: compound fluorescence, GFP filter.

For `CN(Cc1ccccc1)c1ccc2cc(C(=O)O)c(=O)oc2c1` [C3, 7-(benzyl(methyl)amino)-2-oxo-2H-chromene-3-carboxylic acid], the “cellular localization (overlay with MTR)” value is reported as “substantial accumulation in the mitochondria”. With `CN(Cc1ccc(F)cc1)c1ccc2cc(C(=O)O)c(=O)oc2c1` [C4, 7-((4-fluorobenzyl)(methyl)amino)-2-oxo-2H-chromene-3-carboxylic acid] the entry was “substantial accumulation in the mitochondria”.

The values are drawn from article PMC12355554, “Development of novel mitochondrial pyruvate carrier inhibitors for breast cancer treatment” (The Journal of Biological Chemistry, 2025).
